Here are results for nine substances from article PMC8895403 (Journal of the American Chemical Society, 2022).

The data set in a line: general procedure: Fmoc solid-phase peptide synthesis; ChemMatrix Rink amide resin (0.4-0.6 mmol/g); HCTU/OxymaPure/DIPEA. The settings on record: whole synthesis; for crude yield: scale of the general procedure 0.05-0.1 mmol.

AVSSGGCWA-NH2 returned a crude mass of 74.8 mg and a crude yield of 79%.

AWWEDRGPPCA-NH2 gave a crude mass of 139 mg and a crude yield of 83%.

AVSSGGSGCWA-NH2 came in with a crude mass of 85.2 mg and a crude yield of 78%.

KVSSGGCWA-NH2 registered a crude mass of 53.1 mg and a crude yield of 90%.

AVNEKHYCWA-NH2 gave a crude mass of 131 mg and a crude yield of 98%.

AWWTNDFCA-NH2 came in with a crude mass of 175 mg and a crude yield of 95%.

On to AWWTNDFCACA-NH2, for which the crude mass turned out to be 154 mg and the crude yield is 86%.

The substance ARNVGLVGMCA-NH2 registered a crude mass of 85 mg and a crude yield of 68%.

Consider Ac-KVSSGGCWA-NH2, for which the crude mass is given as 34 mg and the crude yield was found to be 56%.
